Read-outs that look alike come from different tables or passages of the source.
Tested on: βII-spectrin fragments (50 kD, 60 kD)
Settings: depleted serum

- βII-spectrin fragmentation at 50 kD compared to HC (atorvastatin 40 mg (A-40) patients, n=4): decreased
- βII-spectrin fragmentation at 50 kD compared to HC (atorvastatin 80 mg (A-80) patients, n=8): increased
- βII-spectrin 60 kD band compared to HC (atorvastatin 80 mg (A-80) patients, p<0.01): significantly increased
Structure (SMILES): CC(C)c1c(C(=O)Nc2ccccc2)c(-c2ccccc2)c(-c2ccc(F)cc2)n1CC[C@@H](O)C[C@@H](O)CC(=O)O [atorvastatin]

From US12590974B2, “Methods and compositions for cardiovascular disease detection and management” (Ohio State Innovation Foundation, priority 2019, dated 2026)
